6 compounds from patent US6359176B1, “Cationic surfactants, process for producing the same and utilization thereof” (Matsumoto Yushi-Seiyaku Co., Ltd., priority 1999, dated 2002) can be followed below.

One data set relates to activated sludge. The experiment in a line: Biodegradability: degradation by microorganisms with degradation tester and closed system oxygen consumption meter. The settings on record: 14 days; 100 % = whole sample degraded into inorganic substances. As to the method: The biodegradability of the derivatives was determined by checking the degree of degradation of those chemicals by microorganisms (procedures defined in Japanese domestic low for regulation of chemical substances and in OECD) with a degradation tester and closed system oxygen consumption meter. The test was continued for 14 days and the biodegradability data was calculated into percentage.
The 100-% degradability in the testing means that whole of a test sample has been degraded into inorganic substances such as carbon dioxide.

Data set [1] is described as follows: Water-absorption effect on treated fabric (JIS P-8141, height of absorbed water). The settings on record: treated with 0.005-wt % aqueous solution 30 minutes, 25° C., 40% RH.
Data set [2] can be described thus: Frictional coefficient of treated fabric. The conditions noted are these: 300 mm/min, 300-g loading, 25° C., 40% RH.
Data set [3] can be described thus: Antistaticity test of treated fabric (static half-life). The settings on record: charged with 10-kV for 30 seconds, 25° C., 40% RH.
The mark [4] stands for this setting: Cotton sheeting, average of two tests.
The mark [5] stands for this setting: Polyester/cotton blend (65:35, %).
The mark [6] stands for this setting: Polyester/cotton blend (65:35%).

Regarding `CCCCCCCCCCCCCCCC[N+](C)(C)C.[Br-]` [Cetyl trimethyl ammonium bromide, reference compound], the “Biodegradability (%)” value with activated sludge was −2.2%.

Regarding `CCCCCCCCCCCCCCCCCC[N+](C)(C)CCCCCCCCCCCCCCCCCC.[Cl-]` [DSDMAC, dimethyl dioctadecyl ammonium chloride, reference compound], the entries for the “Height of absorbed water” value in data set [1] (setting [4]), in data set [1] (Polyester taffeta) and in data set [1] (setting [5]) were 3.9 cm, 0.8 cm and 3.7 cm, respectively. In addition, the values for the Dynamic frictional coefficient in data set [2] (Cotton sheeting) and in data set [2] (setting [6]) were 0.07 and 0.18, respectively. Further, the Static frictional coefficient is listed as 0.13 in data set [2] (Cotton sheeting) and 0.19 in data set [2] (setting [6]). In addition, the Static half-life was 0.96 s in data set [3] (Cotton sheeting), 12.9 s in data set [3] (Polyester taffeta) and 1.35 s in data set [3] (setting [5]).

Regarding `CCCCCCCCCCCC(=O)OCC(O)C(O)C(O)C(O)C[N+](C)(C)C.[Cl-]` (stereo not shown) [Monolaurate derivative], the “Height of absorbed water” value in data set [1] (setting [4]) is listed as 7.0 cm; in data set [1] (Polyester taffeta), 2.0 cm; in data set [1] (setting [5]), 6.0 cm. The values for the Dynamic frictional coefficient in data set [2] (Cotton sheeting) and in data set [2] (setting [6]) were 0.22 and 0.17, respectively. Also, the Static frictional coefficient in data set [2] (Cotton sheeting) is on record as 0.26; in data set [2] (setting [6]) it was 0.18. For the same compound, the Static half-life in data set [3] (Cotton sheeting) came out at 1.03 s; in data set [3] (Polyester taffeta), 5.6 s; in data set [3] (setting [5]), 1.16 s. The “Biodegradability (%)” value with activated sludge is reported as 43.0%.

Regarding `CCCCCCCCCCCCCC(=O)OCC(O)C(O)C(O)C(O)C[N+](C)(C)C.[I-]` (stereo not shown) [Monomyristate derivative], in the data set with activated sludge, the “Biodegradability (%)” value worked out at 35.5%.

Take `CCCCCCCCCCCCCCCC(=O)OCC(O)C(O)C(O)C(O)C[N+](C)(C)C.[Cl-]` (stereo not shown) [Monopalmitate derivative]: the “Height of absorbed water” value in data set [1] (setting [4]) is reported as 5.6 cm; in data set [1] (Polyester taffeta) it was 2.7 cm; in data set [1] (setting [5]), 4.9 cm. Moreover, the values for the Dynamic frictional coefficient in data set [2] (Cotton sheeting) and in data set [2] (setting [6]) were 0.32 and 0.18, respectively. Also, the Static frictional coefficient in data set [2] (Cotton sheeting) is 0.35; in data set [2] (setting [6]), 0.19. For the same compound, the Static half-life in data set [3] (Cotton sheeting) was found to be 1.01 s; in data set [3] (Polyester taffeta), 4.5 s; in data set [3] (setting [5]) it was 1.15 s.

Turning to `C[N+](C)(C)CC(O)C(O)C(O)C(O)CO.[I-]` (stereo not shown) [Quaternary salt of methyl glucamine, HO—CH2—(CH.OH)4—CH2—N^+(CH3)3I^−, reference compound], the “Biodegradability (%)” value with activated sludge is given as 17.1%.
